For two molecules, binding results are on record in patent US20100266604A1, “USE OF TAM RECEPTOR INHIBITORS AS IMMUNOENHANCERS AND TAM ACTIVATORS AS IMMUNOSUPPRESSORS” (The Salk Institute for Biological Studies, priority 2007, published 2010).

For one test, the target named is T1, IFNAR2 (mouse) (UniProt O35664).
T1 sequence (receptor chain, looked up): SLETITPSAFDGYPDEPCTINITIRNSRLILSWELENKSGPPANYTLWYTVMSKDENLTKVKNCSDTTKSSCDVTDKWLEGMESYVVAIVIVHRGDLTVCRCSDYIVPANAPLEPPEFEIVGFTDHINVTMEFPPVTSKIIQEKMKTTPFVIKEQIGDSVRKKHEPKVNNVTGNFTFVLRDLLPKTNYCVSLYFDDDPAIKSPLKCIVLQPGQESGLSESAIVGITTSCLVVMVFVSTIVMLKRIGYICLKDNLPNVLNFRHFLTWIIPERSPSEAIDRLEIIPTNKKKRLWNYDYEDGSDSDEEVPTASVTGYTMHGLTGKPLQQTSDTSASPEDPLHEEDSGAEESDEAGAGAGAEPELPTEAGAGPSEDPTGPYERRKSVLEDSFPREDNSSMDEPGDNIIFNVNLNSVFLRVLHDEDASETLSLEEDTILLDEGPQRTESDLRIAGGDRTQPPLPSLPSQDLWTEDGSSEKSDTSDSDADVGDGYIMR
Briefly: co-immunoprecipitation from BM-DC whole cell lysates, untreated (-) or treated 20 min with 50 nM Gas6 (+); IP with antibody to the IFN receptor R2 chain, immunoblot for STAT1; the association may be direct or indirect. (In western blotting, separated proteins are transferred to a membrane and probed.)

Test [1] deals with T2, R1 chain of the type I IFN receptor (mouse, endogenous in BM-DCs) (mouse) (UniProt P33896).
T2 sequence (looked up): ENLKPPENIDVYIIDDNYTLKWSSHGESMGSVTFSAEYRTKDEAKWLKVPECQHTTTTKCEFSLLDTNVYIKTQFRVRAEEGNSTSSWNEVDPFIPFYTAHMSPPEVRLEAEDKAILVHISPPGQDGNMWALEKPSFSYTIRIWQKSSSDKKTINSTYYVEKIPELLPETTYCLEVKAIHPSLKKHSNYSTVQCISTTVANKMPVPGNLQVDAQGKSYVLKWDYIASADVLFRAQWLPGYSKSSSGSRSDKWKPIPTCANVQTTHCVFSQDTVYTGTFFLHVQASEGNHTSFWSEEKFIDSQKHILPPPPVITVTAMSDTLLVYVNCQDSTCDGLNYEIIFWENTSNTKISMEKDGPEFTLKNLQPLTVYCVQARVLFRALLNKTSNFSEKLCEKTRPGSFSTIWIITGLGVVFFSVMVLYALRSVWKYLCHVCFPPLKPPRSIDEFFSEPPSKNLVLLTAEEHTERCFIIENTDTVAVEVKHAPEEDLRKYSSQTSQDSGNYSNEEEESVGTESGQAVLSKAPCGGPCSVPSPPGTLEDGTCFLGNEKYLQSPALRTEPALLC
Briefly: co-immunoprecipitation from BM-DC lysates, untreated or treated with 50 nM Gas6 for 20 min; immunoblot.

In test [2] the target is T2, R1 chain of the type I IFN receptor (mouse, endogenous in BM-DCs) (mouse). Briefly: reciprocal co-immunoprecipitation (IP of Axl, blot with anti-IFNAR1) from BM-DC lysates.
For test [3] the target is unchanged. Briefly: co-immunoprecipitation from BM-DC lysates (FIG. 4J), as summarised in Example 9.
The target is the same in test [4]. Briefly: co-immunoprecipitation from BM-DC lysates (FIG. 4J), as summarised in the discussion.

Results are given in words; binding and its absence hold for the method and conditions named. Binding seen in cells or lysates may run through a third protein. Some results given as binding are weak or reduced against the parent protein; the word gives no strength.

B1: STAT1 (protein, mouse, UniProt P42225 2-749, looked up)
transcription factor: SQWFELQQLDSKFLEQVHQLYDDSFPMEIRQYLAQWLEKQDWEHAAYDVSFATIRFHDLLSQLDDQYSRFSLENNFLLQHNIRKSKRNLQDNFQEDPVQMSMIIYNCLKEERKILENAQRFNQAQEGNIQNTVMLDKQKELDSKVRNVKDQVMCIEQEIKTLEELQDEYDFKCKTSQNREGEANGVAKSDQKQEQLLLHKMFLMLDNKRKEIIHKIRELLNSIELTQNTLINDELVEWKRRQQSACIGGPPNACLDQLQTWFTIVAETLQQIRQQLKKLEELEQKFTYEPDPITKNKQVLSDRTFLLFQQLIQSSFVVERQPCMPTHPQRPLVLKTGVQFTVKSRLLVKLQESNLLTKVKCHFDKDVNEKNTVKGFRKFNILGTHTKVMNMEESTNGSLAAELRHLQLKEQKNAGNRTNEGPLIVTEELHSLSFETQLCQPGLVIDLETTSLPVVVISNVSQLPSGWASILWYNMLVTEPRNLSFFLNPPCAWWSQLSEVLSWQFSSVTKRGLNADQLSMLGEKLLGPNAGPDGLIPWTRFCKENINDKNFSFWPWIDTILELIKNDLLCLWNDGCIMGFISKERERALLKDQQPGTFLLRFSESSREGAITFTWVERSQNGGEPDFHAVEPYTKKELSAVTFPDIIRNYKVMAAENIPENPLKYLYPNIDKDHAFGKYYSRPKEAPEPMELDDPKRTGYIKTELISVSEVHPSRLQTTDNLLPMSPEEFDEMSRIVGPEFDSMMSTV
Consider B1, for which the binding result in the test with IFNAR2 (mouse) is recorded as “binds”.

B2: Axl (mouse, endogenous in bone marrow-derived dendritic cells) (receptor, UniProt Q00993 19-888, looked up)
chain: AHKDTQTEAGSPFVGNPGNITGARGLTGTLRCELQVQGEPPEVVWLRDGQILELADNTQTQVPLGEDWQDEWKVVSQLRISALQLSDAGEYQCMVHLEGRTFVSQPGFVGLEGLPYFLEEPEDKAVPANTPFNLSCQAQGPPEPVTLLWLQDAVPLAPVTGHSSQHSLQTPGLNKTSSFSCEAHNAKGVTTSRTATITVLPQRPHHLHVVSRQPTELEVAWTPGLSGIYPLTHCNLQAVLSDDGVGIWLGKSDPPEDPLTLQVSVPPHQLRLEKLLPHTPYHIRISCSSSQGPSPWTHWLPVETTEGVPLGPPENVSAMRNGSQVLVRWQEPRVPLQGTLLGYRLAYRGQDTPEVLMDIGLTREVTLELRGDRPVANLTVSVTAYTSAGDGPWSLPVPLEPWRPGQGQPLHHLVSEPPPRAFSWPWWYVLLGALVAAACVLILALFLVHRRKKETRYGEVFEPTVERGELVVRYRVRKSYSRRTTEATLNSLGISEELKEKLRDVMVDRHKVALGKTLGEGEFGAVMEGQLNQDDSILKVAVKTMKIAICTRSELEDFLSEAVCMKEFDHPNVMRLIGVCFQGSDREGFPEPVVILPFMKHGDLHSFLLYSRLGDQPVFLPTQMLVKFMADIASGMEYLSTKRFIHRDLAARNCMLNENMSVCVADFGLSKKIYNGDYYRQGRIAKMPVKWIAIESLADRVYTSKSDVWSFGVTMWEIATRGQTPYPGVENSEIYDYLRQGNRLKQPVDCLDGLYALMSRCWELNPRDRPSFAELREDLENTLKALPPAQEPDEILYVNMDEGGSHLEPRGAAGGADPPTQPDPKDSCSCLTAADVHSAGRYVLCPSTAPGPTLSADRGCPAPPGQEDGA
With B2, the binding result in test [1], in test [2], in test [3] and in test [4] was “binds” in each case.
